Counter-ions that a name gives are not always drawn. Some of these results come from one statement about several compounds together.
These compounds were tested against T1, PI3Kalpha (Homo sapiens, UniProt P42336) (assay: PI3K enzyme HTRF assay (PI3Kalpha)).
T1 construct: His (N); host or cells: SF9 insect cells (baculovirus co-infection)
Assay type: biochemical
Source text: Active phosphatidylinositol 3′ kinase (PI3K) enzyme is purified at Millennium Pharmaceuticals from SF9 insect cells (Invitrogen) co-infected with baculovirus containing amino-terminal His-tagged p110α and p85α expression constructs.
The PI3K enzyme HTRF® assay makes use of an energy transfer complex comprised of biotin-PI(3,4,5)P3, Europhium labeled anti-GST monoclonal antibody, a GST-tagged GRP1 pleckstrin homology (PH) domain, and Streptavidin-APC (allophycocyanin). Excitation of the Europium in the complex results in a stable time-resolved fluorescence resonance energy transfer (FRET) signal. Phosphatidylinositol 3,4,5 triphosphate (PI(3,4,5)P3, the product of PI3K, disrupts the energy transfer complex by competing with biotin-PI(3,4,5)P3 for binding to the GRP1 PH domain, resulting in a decreased fluorescent signal. Inhibitors of PI3K in the reaction prevent a decrease in the fluorescent signal.
PI3K enzyme (325 pM) is incubated with di-C8 PI(4,5)P2 substrate (3.5 μM, CellSignals, Inc.) in assay buffer (50 mM HEPES pH 7.0, 5 mM DTT, 150 mM NaCl, 10 mM β-glycerophosphate, 5 mM MgCl2, 0.25 mM sodium cholate, 0.001% CHAPS) containing 25 μM ATP and 0.5 μL of test compound (in 100% DMSO) at multiple concentrations in a final volume of 20.5 μL in 384 well plates for 30 min at 22-23° C. The reaction is terminated by adding 5 μL of detection buffer (50 mM HEPES pH7.0, 5 mM DTT, 1 mM NaCl, 10% Tween-20) containing EDTA (90 mM) and biotin-PI(3,4,5)P3 (150 nM, Echelon Bioscience) to each well. 5 μL of detection buffer containing GST-fused GRP1 PH domain protein (210 nM, Millennium Pharmaceuticals), anti-GST-Europium tagged cryptate antibody (2.25 nM, CisBio), Streptavidin-XL (90 nM, CisBio) and potassium fluoride (240 mM) are then added to each well and incubated for 1 hour. Fluorescent signal for each well is then measured on an LJL_Analyst (Molecular Devices). Concentration response curves are generated by calculating the fluorescent signal in test compound-treated samples relative to DMSO-treated (0% inhibition) and EDTA-treated (100% inhibition) controls, and concentrations producing 50% inhibition (IC50 values) were determined from those curves.
The catalytic subunits of PI3Ks are cloned into either pDEST8(p110 alpha) or pDEST10(p110beta, p110delta, and p110gamma) as N-terminal His tagged fusion proteins using the Gateway system (Invitrogen, catalog#11804-010 for pDEST8 and 11806-015 for pDEST10). The sequences are verified before recombinant protein expression using the Baculovirus Expression System with Gateway® Technology. The accession numbers for the subunits are as follows:
For expression of the p110 complexes, the p85 (MOI of 4) is co-infected with p110 alpha, beta, and delta respectively (1MOI) in SF9 cells and harvested at 60 hours post co-infection. P110 gamma was infected at 1 MOI and harvested at 60 hours post infection.
For purification, PI3Ks are purified by Ni-NTA Agarose (Qiagen #30250) followed by Mono Q 10/100 GL (Ge Healthcare #17-5167-01). VPS34 is purified by Glutathione Sepharose 4 Fast Flow (GE Healthcare #17-5132-03) followed by HiTrap Q (GE Healthcare #17-1153-01).
1) Human PI3Kα Enzyme Assay Method
0.5 uL compounds in DMSO are added to wells of a 384 well microtitre plate (Corning 3575). At room temperature: 10 ul PI3K reaction buffer (50 mM Hepes, 5 mM DTT, 150 mM NaCl, 10 mM beta-glycerophosphate, 10 mM MgCl2, 0.25 mM sodium cholate and 0.001% CHAPS, pH 7.00) containing ATP (25 uM, Promega) is added followed immediately by 10 ul PI3K reaction buffer containing di-C8 PI(4,5)P2 (3.5 uM, CellSignals) and PI3Kalpha (0.4875 nM, Millennium Protein Sciences Group) and the mixture is incubated with shaking at room temperature for 30 minutes. […]

Amino acid sequences for entries named in this document (tags omitted).
UniProt P42336, whole entry: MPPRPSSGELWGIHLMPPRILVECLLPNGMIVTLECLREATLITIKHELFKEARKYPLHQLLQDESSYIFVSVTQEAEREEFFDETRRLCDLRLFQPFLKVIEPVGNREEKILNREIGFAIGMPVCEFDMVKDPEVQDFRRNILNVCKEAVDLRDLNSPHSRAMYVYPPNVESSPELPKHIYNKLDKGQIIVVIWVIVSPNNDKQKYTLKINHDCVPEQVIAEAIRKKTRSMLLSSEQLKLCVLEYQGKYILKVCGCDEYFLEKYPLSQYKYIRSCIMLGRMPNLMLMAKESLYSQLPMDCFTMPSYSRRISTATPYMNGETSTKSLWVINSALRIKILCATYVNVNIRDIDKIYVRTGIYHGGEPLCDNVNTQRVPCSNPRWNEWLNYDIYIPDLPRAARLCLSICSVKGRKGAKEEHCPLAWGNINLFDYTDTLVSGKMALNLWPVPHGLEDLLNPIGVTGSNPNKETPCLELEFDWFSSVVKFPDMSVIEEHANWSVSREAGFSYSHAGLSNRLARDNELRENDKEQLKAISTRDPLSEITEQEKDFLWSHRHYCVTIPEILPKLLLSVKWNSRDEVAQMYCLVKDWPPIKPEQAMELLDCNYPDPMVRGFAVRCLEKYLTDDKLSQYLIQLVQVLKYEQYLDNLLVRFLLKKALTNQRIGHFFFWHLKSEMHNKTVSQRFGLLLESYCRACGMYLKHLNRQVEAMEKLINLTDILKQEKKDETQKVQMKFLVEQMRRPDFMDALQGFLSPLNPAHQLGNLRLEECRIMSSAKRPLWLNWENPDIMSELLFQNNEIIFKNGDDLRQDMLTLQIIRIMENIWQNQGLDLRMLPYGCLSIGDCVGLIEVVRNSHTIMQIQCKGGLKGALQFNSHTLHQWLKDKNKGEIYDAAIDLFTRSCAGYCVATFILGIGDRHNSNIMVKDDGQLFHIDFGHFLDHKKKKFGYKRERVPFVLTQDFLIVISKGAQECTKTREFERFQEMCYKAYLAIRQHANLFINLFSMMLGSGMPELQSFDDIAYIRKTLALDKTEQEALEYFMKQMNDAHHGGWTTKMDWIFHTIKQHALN

IC50, < 100 nM:
CC(=O)Nc1cc(-c2nc(-c3ccc(Cl)cc3Cl)c(-c3nc(C)c[nH]3)s2)ccn1 [Example 49-C, N-{4-[4-(2,4-dichlorophenyl)-5-(4-methyl-1H-imidazol-2-yl)-1,3-thiazol-2-yl]pyridin-2-yl}acetamide]
CCOC(=O)Nc1cc(-c2nc(OCC)c(-c3nc[nH]n3)s2)ccn1 [Example 114-B, ethyl {4-[4-ethoxy-5-(1H-1,2,4-triazol-3-yl)-1,3-thiazol-2-yl]pyridin-2-yl}carbamate]
COc1ccc(-c2ccc3nc(C)c(-c4nc(-c5ccccc5)c(-c5nc[nH]n5)s4)n3c2)cc1OC [Example 117-B, 6-(3,4-dimethoxyphenyl)-2-methyl-3-[4-phenyl-5-(1H-1,2,4-triazol-3-yl)-1,3-thiazol-2-yl]imidazo[1,2-a]pyridine]
Cc1nc2ccc(-c3cnn(C)c3)cn2c1-c1nc(-c2ccccc2)c(-c2nc[nH]n2)s1 [Example 118-B, 2-methyl-6-(1-methyl-1H-pyrazol-4-yl)-3-[4-phenyl-5-(1H-1,2,4-triazol-3-yl)-1,3-thiazol-2-yl]imidazo[1,2-a]pyridine]
C=Cc1ccc2nc(C)c(-c3nc(-c4ccccc4)c(-c4nc[nH]n4)s3)n2c1 [Example 120-B, 2-methyl-3-[4-phenyl-5-(1H-1,2,4-triazol-3-yl)-1,3-thiazol-2-yl]-6-vinylimidazo[1,2-a]pyridine]
CC(=O)N1CCN(Cc2ccc3nc(C)c(-c4nc(-c5ccccc5)c(-c5nc[nH]n5)s4)n3c2)CC1 [Example 121-B, 6-[(4-acetylpiperazin-1-yl)methyl]-2-methyl-3-[4-phenyl-5-(1H-1,2,4-triazol-3-yl)-1,3-thiazol-2-yl]imidazo[1,2-a]pyridine]
Cc1nc(NC(=O)C2CC2)sc1-c1nc(-c2ccccc2)c(-c2nc[nH]n2)s1 [Example 125-B, N-[4′-methyl-4-phenyl-5-(1H-1,2,4-triazol-3-yl)-2,5′-bi-1,3-thiazol-2′-yl]cyclopropanecarboxamide hydrochloride]
Cc1nc2ccc(CCCN)cn2c1-c1nc(-c2ccccc2)c(-c2nnc[nH]2)s1 [Example 128-B, 3-{2-methyl-3-[4-phenyl-5-(4H-1,2,4-triazol-3-yl)-1,3-thiazol-2-yl]imidazo[1,2-a]pyridin-6-yl}propan-1-amine]
Cc1nc2ccc(CN(C)CCN)cn2c1-c1nc(-c2ccccc2)c(-c2nnc[nH]2)s1 [Example 147-B, N-methyl-N-({2-methyl-3-[4-phenyl-5-(4H-1,2,4-triazol-3-yl)-1,3-thiazol-2-yl]imidazo[1,2-a]pyridin-6-yl}methyl)ethane-1,2-diamine]
CNc1nccc(-c2sc(-c3nnc[nH]3)c(-c3ccc(Cl)cc3Cl)c2C#N)n1 [Example A-12, 4-(2,4-dichlorophenyl)-2-[2-(methylamino)pyrimidin-4-yl]-5-(4H-1,2,4-triazol-3-yl)thiophene-3-carbonitrile]
CC(=O)Nc1cc(-c2sc(-c3nccn3Cc3ccccc3)c(-c3ccc(Cl)cc3Cl)c2C#N)ccn1 [Example A-19, N-{4-[5-(1-benzyl-1H-imidazol-2-yl)-3-cyano-4-(2,4-dichlorophenyl)-2-thienyl]pyridin-2-yl}acetamide]
N#Cc1c(-c2ccnc(NC(=O)C3CC3)c2)sc(-c2nnc[nH]2)c1-c1ccc(Cl)cc1Cl [Example A-32, N-(4-(3-cyano-4-(2,4-dichlorophenyl)-5-(4H-1,2,4-triazol-3-yl)thiophen-2-yl)pyridin-2-yl)cyclopropanecarboxamide]
N#Cc1c(-c2ccnc(NC(=O)C3CC3)c2)sc(-c2ncc[nH]2)c1-c1ccc(Cl)cc1Cl [Example A-34, N-{4-[3-cyano-4-(2,4-dichlorophenyl)-5-(1H-imidazol-2-yl)-2-thienyl]pyridin-2-yl}cyclopropanecarboxamide]
CNc1cc(-c2sc(-c3nnc[nH]3)c(-c3ccc(Cl)cc3Cl)c2C#N)ccn1 [Example A-37, 4-(2,4-dichlorophenyl)-2-(2-(methylamino)pyridin-4-yl)-5-(4H-1,2,4-triazol-3-yl)thiophene-3-carbonitrile]
Cc1cc(-c2cc(-c3ccc(Cl)cc3Cl)c(-c3ncc[nH]3)s2)ccn1 [Example A-66, 4-[4-(2,4-dichlorophenyl)-5-(1H-imidazol-2-yl)-2-thienyl]-2-methylpyridine]
CC(=O)Nc1cc(-c2sc(-c3cnn[nH]3)c(-c3ccc(Cl)cc3Cl)c2C#N)ccn1 [Example A-73, N-{4-[3-cyano-4-(2,4-dichlorophenyl)-5-(1H-1,2,3-triazol-5-yl)-2-thienyl]pyridin-2-yl}acetamide]
CC(=O)Nc1cc(-c2sc(-c3nnc(Br)[nH]3)c(-c3ccc(Cl)cc3Cl)c2C#N)ccn1 [Example A-74, N-{4-[5-(5-bromo-4H-1,2,4-triazol-3-yl)-3-cyano-4-(2,4-dichlorophenyl)-2-thienyl]pyridin-2-yl}acetamide]
CC(=O)Nc1cc(-c2sc(-c3ccn[nH]3)c(-c3ccc(Cl)cc3Cl)c2C#N)ccn1 [Example A-76, N-(4-(3-cyano-4-(2,4-dichlorophenyl)-5-(1H-pyrazol-5-yl)thiophen-2-yl)pyridin-2-yl)acetamide]
CC(=O)Nc1cc(-c2sc(-c3cnc[nH]3)c(-c3ccc(Cl)cc3Cl)c2C#N)ccn1 [Example A-77, N-(4-(3-cyano-4-(2,4-dichlorophenyl)-5-(1H-imidazol-5-yl)thiophen-2-yl)pyridin-2-yl)acetamide]
CC(=O)Nc1cc(-c2nc(-c3ccccc3)c(-c3nnc[nH]3)s2)ccn1 [Example B-1, N-{4-[4-phenyl-5-(4H-1,2,4-triazol-3-yl)-1,3-thiazol-2-yl]pyridin-2-yl}acetamide]
